This is an account of results in the supplement of paper PMC9135407.

This assay has as its system primary human hepatic stellate cells (donor 1). The assay can be described thus: percent Bodipy-positive cells; higher = more lipid droplet accumulation. The conditions noted are these: 48 h.
[1] abbreviates: library stock concentration: 6 mM.
Setting [2] is: library stock concentration: 10 mM.
Setting [3] is: library stock concentration: 3.33 mM.
[4] abbreviates: library stock concentration: 80 uM.
[5] abbreviates: library stock concentration: 400 uM.
Setting [6] is: library stock concentration: 2 mM.
The mark [7] stands for this setting: library stock concentration: 1 mM.

“And” between values parts separate entries of the source, which are not always exact repeats. Equal entries are not always repeated. Structures can show the parent of a compound that is named as a salt. ± gives the standard deviation of the averaged measurements. Some of the results follow. Plates or batches differ in their baseline, so values are only roughly comparable.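 Culture-activated primary human stellate myofibroblasts, where regained lipid droplets signal inactivation. Value: share of Hoechst-counted cells above a per-plate Bodipy cutoff, in duplicate wells, with DMSO negative and nortriptyline positive controls on each plate. Hits: a control-normalized score above the plate's top-tenth-percentile nortriptyline wells, or one of a plate's three best wells. Final well concentrations are not given.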

Turning to `CC(=O)Nc1ccc(S(=O)(=O)Nc2ccc([N+](=O)[O-])cc2)cc1` [Sulfanitran], the “percent Bodipy-positive cells” value by setting is: under setting [1], 8.69 ± 1.2%; under setting [2], 25 ± 1.1%. Turning to `CCc1cc(C(N)=S)ccn1`, the “percent Bodipy-positive cells” value under setting [2] amounted to 25.1 ± 2.1%. On to `CCc1cc(C(N)=S)ccn1` [Ethionamide], for which the “percent Bodipy-positive cells” value worked out at 25.5 ± 11%. Also, the “percent Bodipy-positive cells” value under setting [3] turned out to be 10.4 ± 1.1%. In addition, under setting [2], the “percent Bodipy-positive cells” value was 12.4% and 10.4%. Also, under “library stock concentration: 12 mM”, the “percent Bodipy-positive cells” value amounted to 4.6 ± 0.13%.

Consider `O=C1C=CC(=O)c2c1ccc1c2ccc2ccccc21` [Chrysene-1,4-quinone], for which the “percent Bodipy-positive cells” value amounted to 87.9 ± 2.9%. For the molecule `CN(Cc1ccccc1)C(=O)[C@H](Cc1ccc2ccccc2c1)NC(=O)[C@@H]1C[C@@H](O)CN1C(=O)c1cn(C)c2ccccc12`, the “percent Bodipy-positive cells” value under setting [2] is 10.1 ± 1.4%. Same read-out and setting: as for `NC(=O)c1ncn([C@@H]2O[C@H](CO)[C@@H](O)[C@H]2O)c1O` [Mizoribine], the figure is 31.2 ± 8.3%. As to `Cc1cn([C@@H]2C[C@@H](O)[C@H](CO)O2)c(=O)[nH]c1=O` [Telbivudine], the “percent Bodipy-positive cells” value runs as follows: under setting [3], 8.09 ± 2.1%; under setting [2], 14.4 ± 1.7%. On to `CN1CCN(C(c2ccccc2)c2ccc(Cl)cc2)CC1` (stereo unspecified) [Chlorcyclizine hydrochloride], for which the “percent Bodipy-positive cells” value is 48.9 ± 12%. Further, the “percent Bodipy-positive cells” value (library stock concentration: 5.9 mM) came to 25.2 ± 1.4%.

Consider `CCOc1cc2ncc(C#N)c(Nc3ccc(OCc4ccccn4)c(Cl)c3)c2cc1NC(=O)/C=C/CN(C)C`, for which the “percent Bodipy-positive cells” value by setting is: under setting [4], 6.46 ± 5.2%; under setting [5], 7.47 ± 1.5%; under setting [6], 25 ± 7.1%; under setting [2], 20.9 ± 7.7%. For the molecule `Cc1cccc(Nc2cc(Cl)nc(SCC(=O)O)n2)c1C`, the “percent Bodipy-positive cells” value is, setting by setting: under setting [7], 7.74% and 22.3%; under setting [3], 31.5 ± 5.9%. As to `CCCCC[C@@H](O)/C=C/[C@H]1[C@H](C/C=C\CCCC(=O)O)C(=O)C[C@@H]1O` [ent-Prostaglandin E2], under setting [7], the “percent Bodipy-positive cells” value worked out at 7.2 ± 0.78%. Consider `Nc1ncnc2c1ncn2[C@@H]1O[C@H](COP(=O)(O)CP(=O)(O)OP(=O)(O)O)[C@H](O)C1O` (stereo partly drawn) [alpha,beta-Methylene adenosine 5'-triphosphate dilithium], for which the “percent Bodipy-positive cells” value under setting [2] was determined as 16.6 ± 4.2%. As to `O=C(N/N=C/c1ccc([N+](=O)[O-])o1)c1ccc(O)cc1` [Nifuroxazide], the “percent Bodipy-positive cells” value amounted to 26.9 ± 5%. Besides, under setting [3], the “percent Bodipy-positive cells” value came to 24.7 ± 9.1%. In addition, the “percent Bodipy-positive cells” value under setting [2] was 61.6 ± 7%. In the case of `C[C@@H]1CN(c2c(F)c(N)c3c(=O)c(C(=O)O)cn(C4CC4)c3c2F)C[C@H](C)N1` [Sparfloxacin], the “percent Bodipy-positive cells” value was determined as 4.72 ± 1.7% under setting [3], 8.13 ± 0.86% (library stock concentration: 5.1 mM) and 7.29 ± 2.4% under setting [2]. Regarding `Cn1c(=O)c2[nH]c(-c3ccc(S(=O)(=O)O)cc3)nc2n(C)c1=O` [8-(p-Sulfophenyl)theophylline], under setting [2], the “percent Bodipy-positive cells” value came out at 35.7 ± 11%. Same read-out and setting: as for `C[C@@H]1O[C@@H]1P(=O)(O)O` [Fosfomycin], the figure is 25.5 ± 12%; as for `C[C@@H]1O[C@@H]1P(=O)(O)O` [Phosphomycin disodium], 29.2 ± 1.2%; as for `Cc1ccc(S(=O)(=O)NCl)cc1`, 29.7 ± 9.3%. As to `O[C@H]1[C@H](O)[C@@H](O)[C@@H]2O[C@@H]2[C@@H]1O` (racemic) [Conduritol b epoxide], the “percent Bodipy-positive cells” value (library stock concentration: 12.3 mM) is 10.9 ± 5.5%.

As to `CC[C@@H]1Cn2c(c3nc(-c4ccccc4)nc-3n(C)c2=O)N1`, under setting [2], the “percent Bodipy-positive cells” value is 5.34 ± 1.2%.

Take `CCOC(=O)c1c(C)[nH]c2ccc3c(c12)CN1CCc2cc(OC)ccc2C1O3` (stereo unspecified): the “percent Bodipy-positive cells” value under setting [2] was determined as 42.5 ± 5.7%. For the molecule `CCCCCCCC(=O)CC[C@@H]1[C@@H](C/C=C\CCCC(=O)OC(C)C)[C@@H](O)C[C@H]1O` [Unoprostone isopropyl ester], the “percent Bodipy-positive cells” value under setting [7] turned out to be 16.6 ± 3.9%. `CCCCCCCCCCCCCCCCCCCCCC(=O)NCCS(=O)(=O)O` [N-Docosanoyl Taurine]: the “percent Bodipy-positive cells” value under setting [7] came out at 9.24 ± 4.4%. `CCn1cc(C(=O)O)c(=O)c2cc(F)c(N3CCN(C)CC3)cc21` [Pefloxacine mesylate]: the “percent Bodipy-positive cells” value (library stock concentration: 4.7 mM) was 11.4 ± 5.2%, the “percent Bodipy-positive cells” value under setting [1] was determined as 6.1 ± 0.57% and the “percent Bodipy-positive cells” value under setting [2] worked out at 47.4 ± 13%.

For the molecule `CCn1cc(C(=O)O)c(=O)c2cc(F)c(N3CCN(C)CC3)cc21`, the “percent Bodipy-positive cells” value under setting [2] was 11.3 ± 6%.

Consider `CCn1cc(C(=O)O)c(=O)c2cc(F)c(N3CCN(C)CC3)cc21` [Pefloxacin Mesylate], for which the “percent Bodipy-positive cells” value is 6.57 ± 1.9% under setting [3] and 7.47 ± 1.3% under setting [2].

Regarding `CCn1cc(C(=O)O)c(=O)c2cc(F)c(N3CCN(C)CC3)cc21` [Pefloxacin Mesylate Dihydrate], the “percent Bodipy-positive cells” value under setting [3] is 9.35 ± 3.4% and the “percent Bodipy-positive cells” value under setting [2] is 16.6 ± 0.97%.

In the case of `CCCCC(=O)Oc1ccccc1C(=O)O` [Valeroyl Salicylate], the “percent Bodipy-positive cells” value under setting [7] was 9.25 ± 3.5%. `CC[C@]12CCCN3CCc4c(n(c5ccccc45)C(=O)C1)[C@@H]32` [Eburnamonine (-)]: the “percent Bodipy-positive cells” value came to 27.4 ± 6.4%.

For `CCOC(=O)c1ccc(N2NC(=O)C(=Cc3ccc([N+](=O)[O-])o3)C2=O)cc1`, the “percent Bodipy-positive cells” value is, setting by setting: under setting [4], 10.1 ± 1.5%; under setting [5], 11.2 ± 4%; under setting [6], 8.65 ± 7.4%; under setting [3], 27.7 ± 6.8%; under setting [2], 25.3% and 8.53%. Regarding `C[C@@H](Oc1cc(-c2cnn(C3CCNCC3)c2)cnc1N)c1c(Cl)ccc(F)c1Cl`, the “percent Bodipy-positive cells” value is 76.7 ± 18% under setting [3] and 97.2 ± 1.4% under setting [2]. As to `CC(N)(C(=O)O)c1ccc(C(=O)O)cc1` (stereo unspecified), the “percent Bodipy-positive cells” value under setting [2] turned out to be 23.4 ± 2%. On to `CC(=O)OCOC(c1ccc2ccccc2c1)P(=O)(OCOC(C)=O)OCOC(C)=O` (stereo unspecified), for which the “percent Bodipy-positive cells” value (library stock concentration: 11 mM) stood at 23.2 ± 5.4%.
